In the supplement of paper PMC10849652:
The other results are listed elsewhere or left out.

By UniProt entry, the sequences of proteins in these tests, tags left out. Where a name states a change or a piece, a line headed by the entry shows the natural chain unless it says otherwise.
UniProt Q92902: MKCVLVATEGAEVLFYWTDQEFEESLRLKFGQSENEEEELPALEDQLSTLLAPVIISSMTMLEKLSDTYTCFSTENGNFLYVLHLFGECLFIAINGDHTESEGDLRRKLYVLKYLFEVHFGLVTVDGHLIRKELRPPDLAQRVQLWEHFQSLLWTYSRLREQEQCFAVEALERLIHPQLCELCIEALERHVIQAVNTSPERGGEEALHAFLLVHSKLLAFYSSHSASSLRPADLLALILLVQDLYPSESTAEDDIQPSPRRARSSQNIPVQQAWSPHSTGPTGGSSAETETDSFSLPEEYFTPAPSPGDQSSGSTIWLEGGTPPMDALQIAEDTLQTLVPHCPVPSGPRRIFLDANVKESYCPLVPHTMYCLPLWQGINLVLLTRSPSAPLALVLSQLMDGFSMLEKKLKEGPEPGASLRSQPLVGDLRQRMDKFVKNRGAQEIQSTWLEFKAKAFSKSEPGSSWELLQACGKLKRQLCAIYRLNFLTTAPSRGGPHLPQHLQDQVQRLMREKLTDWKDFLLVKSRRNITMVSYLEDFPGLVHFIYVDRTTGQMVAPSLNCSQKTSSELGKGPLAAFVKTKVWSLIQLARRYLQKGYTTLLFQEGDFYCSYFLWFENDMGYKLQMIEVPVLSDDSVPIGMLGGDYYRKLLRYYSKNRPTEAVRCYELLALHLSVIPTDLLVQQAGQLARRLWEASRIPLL
UniProt Q99714: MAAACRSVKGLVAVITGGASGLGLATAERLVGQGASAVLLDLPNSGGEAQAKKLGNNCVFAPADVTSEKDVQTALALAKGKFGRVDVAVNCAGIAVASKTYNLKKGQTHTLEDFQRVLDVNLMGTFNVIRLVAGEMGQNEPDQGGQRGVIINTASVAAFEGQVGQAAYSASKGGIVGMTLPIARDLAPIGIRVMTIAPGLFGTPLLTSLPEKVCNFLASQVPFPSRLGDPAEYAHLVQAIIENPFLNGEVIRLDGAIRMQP
UniProt P14866: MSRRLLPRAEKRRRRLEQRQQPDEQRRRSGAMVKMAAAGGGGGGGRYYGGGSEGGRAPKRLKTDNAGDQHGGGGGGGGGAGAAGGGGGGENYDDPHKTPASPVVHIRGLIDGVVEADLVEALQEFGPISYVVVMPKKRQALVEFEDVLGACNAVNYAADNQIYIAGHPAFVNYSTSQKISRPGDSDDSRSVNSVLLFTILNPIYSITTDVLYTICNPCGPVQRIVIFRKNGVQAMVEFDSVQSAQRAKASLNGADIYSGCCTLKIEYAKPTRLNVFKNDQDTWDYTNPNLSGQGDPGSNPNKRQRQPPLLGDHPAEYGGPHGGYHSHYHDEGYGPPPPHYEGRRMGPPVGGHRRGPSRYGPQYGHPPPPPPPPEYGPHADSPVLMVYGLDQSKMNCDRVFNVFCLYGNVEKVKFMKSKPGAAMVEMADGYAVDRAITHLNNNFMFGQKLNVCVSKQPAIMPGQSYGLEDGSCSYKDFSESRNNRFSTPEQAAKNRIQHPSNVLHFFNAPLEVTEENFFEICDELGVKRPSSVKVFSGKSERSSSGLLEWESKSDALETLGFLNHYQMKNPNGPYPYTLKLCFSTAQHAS
UniProt P10809, whole entry, looked up: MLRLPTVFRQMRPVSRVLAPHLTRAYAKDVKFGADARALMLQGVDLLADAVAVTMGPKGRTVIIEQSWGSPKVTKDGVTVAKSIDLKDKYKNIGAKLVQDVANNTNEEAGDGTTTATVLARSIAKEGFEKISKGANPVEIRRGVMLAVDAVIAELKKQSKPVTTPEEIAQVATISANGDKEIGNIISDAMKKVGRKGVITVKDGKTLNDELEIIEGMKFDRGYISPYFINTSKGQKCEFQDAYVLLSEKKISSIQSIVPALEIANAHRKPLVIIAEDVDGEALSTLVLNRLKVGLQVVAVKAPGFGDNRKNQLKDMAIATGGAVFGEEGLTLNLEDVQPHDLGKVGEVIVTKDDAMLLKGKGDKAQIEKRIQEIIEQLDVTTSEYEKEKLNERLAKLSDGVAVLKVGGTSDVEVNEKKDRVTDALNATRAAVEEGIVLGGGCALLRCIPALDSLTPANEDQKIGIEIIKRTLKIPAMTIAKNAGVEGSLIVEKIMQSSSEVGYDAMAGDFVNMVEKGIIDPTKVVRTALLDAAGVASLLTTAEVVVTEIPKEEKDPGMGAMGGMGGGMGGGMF
UniProt Q53T59: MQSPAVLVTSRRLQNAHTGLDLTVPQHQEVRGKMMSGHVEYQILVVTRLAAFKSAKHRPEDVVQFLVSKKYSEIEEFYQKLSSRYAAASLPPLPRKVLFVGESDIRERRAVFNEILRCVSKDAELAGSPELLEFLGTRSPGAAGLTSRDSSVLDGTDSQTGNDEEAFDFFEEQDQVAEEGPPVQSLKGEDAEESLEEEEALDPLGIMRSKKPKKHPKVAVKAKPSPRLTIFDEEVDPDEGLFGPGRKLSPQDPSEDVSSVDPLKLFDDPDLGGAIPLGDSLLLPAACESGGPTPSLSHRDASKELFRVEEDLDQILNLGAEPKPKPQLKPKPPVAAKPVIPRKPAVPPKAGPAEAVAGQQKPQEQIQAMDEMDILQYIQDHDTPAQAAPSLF
UniProt P82970: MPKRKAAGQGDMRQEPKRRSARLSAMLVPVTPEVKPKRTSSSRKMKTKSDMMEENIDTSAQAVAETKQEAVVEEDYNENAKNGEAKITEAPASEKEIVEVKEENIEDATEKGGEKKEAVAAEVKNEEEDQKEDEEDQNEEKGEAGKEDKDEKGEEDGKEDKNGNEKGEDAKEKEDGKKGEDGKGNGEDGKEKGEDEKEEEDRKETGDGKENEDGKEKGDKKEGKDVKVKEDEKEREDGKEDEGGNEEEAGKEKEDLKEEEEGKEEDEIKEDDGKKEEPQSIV
UniProt Q00613: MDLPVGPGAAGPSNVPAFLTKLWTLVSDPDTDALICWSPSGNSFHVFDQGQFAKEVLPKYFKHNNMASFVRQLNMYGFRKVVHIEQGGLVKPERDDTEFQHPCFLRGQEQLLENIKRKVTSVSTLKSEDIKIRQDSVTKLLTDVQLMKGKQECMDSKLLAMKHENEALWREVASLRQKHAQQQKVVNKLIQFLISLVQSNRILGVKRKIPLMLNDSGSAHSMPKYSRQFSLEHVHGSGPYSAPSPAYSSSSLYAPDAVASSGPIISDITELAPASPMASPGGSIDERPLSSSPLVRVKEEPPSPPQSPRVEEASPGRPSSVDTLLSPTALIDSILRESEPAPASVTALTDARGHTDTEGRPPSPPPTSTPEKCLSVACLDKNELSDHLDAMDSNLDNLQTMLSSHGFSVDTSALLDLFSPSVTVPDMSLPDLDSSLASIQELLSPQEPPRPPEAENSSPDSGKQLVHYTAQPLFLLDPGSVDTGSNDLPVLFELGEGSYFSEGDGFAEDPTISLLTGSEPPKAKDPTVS
UniProt O60725, whole entry, looked up: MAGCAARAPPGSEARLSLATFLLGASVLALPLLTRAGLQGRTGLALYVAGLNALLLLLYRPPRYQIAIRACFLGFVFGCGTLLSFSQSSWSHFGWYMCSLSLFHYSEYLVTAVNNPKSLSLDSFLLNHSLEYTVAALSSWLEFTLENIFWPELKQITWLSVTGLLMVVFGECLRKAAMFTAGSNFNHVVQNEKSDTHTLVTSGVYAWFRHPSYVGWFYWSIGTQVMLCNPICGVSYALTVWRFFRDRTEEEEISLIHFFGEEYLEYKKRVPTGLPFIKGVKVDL
UniProt Q96EW2: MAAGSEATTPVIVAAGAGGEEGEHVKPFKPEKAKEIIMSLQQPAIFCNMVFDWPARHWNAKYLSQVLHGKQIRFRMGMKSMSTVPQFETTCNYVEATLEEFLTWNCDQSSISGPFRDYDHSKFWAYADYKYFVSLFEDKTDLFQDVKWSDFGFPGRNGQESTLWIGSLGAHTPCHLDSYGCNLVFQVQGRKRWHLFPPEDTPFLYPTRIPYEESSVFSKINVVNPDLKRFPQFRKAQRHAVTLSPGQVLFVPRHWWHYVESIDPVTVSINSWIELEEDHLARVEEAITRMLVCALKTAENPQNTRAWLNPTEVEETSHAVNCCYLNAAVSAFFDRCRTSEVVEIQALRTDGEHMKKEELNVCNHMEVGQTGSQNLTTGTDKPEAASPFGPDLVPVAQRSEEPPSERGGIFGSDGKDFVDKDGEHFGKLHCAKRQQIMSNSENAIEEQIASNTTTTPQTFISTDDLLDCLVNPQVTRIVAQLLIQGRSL
UniProt P41134: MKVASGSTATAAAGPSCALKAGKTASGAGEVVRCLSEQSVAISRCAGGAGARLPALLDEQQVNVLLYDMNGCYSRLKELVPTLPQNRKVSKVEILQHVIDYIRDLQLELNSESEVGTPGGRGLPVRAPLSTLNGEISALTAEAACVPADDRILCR
UniProt Q9NSC5: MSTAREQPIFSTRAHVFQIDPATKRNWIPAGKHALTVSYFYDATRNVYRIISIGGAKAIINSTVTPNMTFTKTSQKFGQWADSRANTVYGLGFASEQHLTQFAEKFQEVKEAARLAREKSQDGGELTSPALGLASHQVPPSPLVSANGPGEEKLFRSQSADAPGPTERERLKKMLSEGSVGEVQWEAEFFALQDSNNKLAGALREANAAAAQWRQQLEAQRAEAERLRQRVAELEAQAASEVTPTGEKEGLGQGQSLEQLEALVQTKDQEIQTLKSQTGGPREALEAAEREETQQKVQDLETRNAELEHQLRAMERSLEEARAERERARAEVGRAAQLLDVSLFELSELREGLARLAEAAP
UniProt Q9UGU5: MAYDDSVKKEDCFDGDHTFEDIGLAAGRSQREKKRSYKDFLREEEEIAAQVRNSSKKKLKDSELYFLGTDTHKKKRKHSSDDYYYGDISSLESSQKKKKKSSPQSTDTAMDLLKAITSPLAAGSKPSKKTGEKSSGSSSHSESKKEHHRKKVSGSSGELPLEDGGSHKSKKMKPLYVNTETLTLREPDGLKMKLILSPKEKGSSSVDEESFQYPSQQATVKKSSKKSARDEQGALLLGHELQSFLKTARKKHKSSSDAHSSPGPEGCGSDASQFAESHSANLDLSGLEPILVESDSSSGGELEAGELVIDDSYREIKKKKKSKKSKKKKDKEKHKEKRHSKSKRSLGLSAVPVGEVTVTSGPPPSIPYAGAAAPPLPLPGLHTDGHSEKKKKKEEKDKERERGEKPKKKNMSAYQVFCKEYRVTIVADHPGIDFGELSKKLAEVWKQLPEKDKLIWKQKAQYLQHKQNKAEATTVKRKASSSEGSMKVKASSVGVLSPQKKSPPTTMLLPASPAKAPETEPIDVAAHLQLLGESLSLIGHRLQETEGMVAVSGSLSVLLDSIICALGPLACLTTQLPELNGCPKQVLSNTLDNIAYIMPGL
UniProt P54868: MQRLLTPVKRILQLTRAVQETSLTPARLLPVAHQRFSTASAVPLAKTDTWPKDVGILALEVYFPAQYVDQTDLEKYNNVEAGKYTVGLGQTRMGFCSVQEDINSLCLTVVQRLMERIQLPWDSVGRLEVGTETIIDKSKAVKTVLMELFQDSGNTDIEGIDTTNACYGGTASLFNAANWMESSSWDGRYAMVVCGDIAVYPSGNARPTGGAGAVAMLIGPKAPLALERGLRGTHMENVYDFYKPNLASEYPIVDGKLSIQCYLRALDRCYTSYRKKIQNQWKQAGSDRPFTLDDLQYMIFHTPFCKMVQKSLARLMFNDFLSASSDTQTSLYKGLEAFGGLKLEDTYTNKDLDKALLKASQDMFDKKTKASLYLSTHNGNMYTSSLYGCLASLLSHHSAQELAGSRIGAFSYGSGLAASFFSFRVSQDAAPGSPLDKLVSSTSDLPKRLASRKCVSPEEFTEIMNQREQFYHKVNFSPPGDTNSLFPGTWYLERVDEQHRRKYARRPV
UniProt Q05084: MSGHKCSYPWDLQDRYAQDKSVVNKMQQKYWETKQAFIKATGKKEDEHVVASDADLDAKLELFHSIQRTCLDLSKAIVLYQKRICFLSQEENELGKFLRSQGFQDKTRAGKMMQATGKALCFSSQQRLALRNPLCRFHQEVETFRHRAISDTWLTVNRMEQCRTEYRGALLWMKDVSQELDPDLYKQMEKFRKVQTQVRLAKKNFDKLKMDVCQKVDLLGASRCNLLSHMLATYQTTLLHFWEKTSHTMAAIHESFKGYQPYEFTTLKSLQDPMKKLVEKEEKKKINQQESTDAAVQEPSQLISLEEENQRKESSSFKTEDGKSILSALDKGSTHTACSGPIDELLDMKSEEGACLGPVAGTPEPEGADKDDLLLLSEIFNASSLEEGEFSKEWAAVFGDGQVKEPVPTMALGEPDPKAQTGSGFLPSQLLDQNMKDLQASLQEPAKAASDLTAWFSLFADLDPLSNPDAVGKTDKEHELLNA
UniProt Q9Y241: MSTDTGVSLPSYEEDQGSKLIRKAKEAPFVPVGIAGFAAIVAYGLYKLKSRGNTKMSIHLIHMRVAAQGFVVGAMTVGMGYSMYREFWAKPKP
UniProt P17483: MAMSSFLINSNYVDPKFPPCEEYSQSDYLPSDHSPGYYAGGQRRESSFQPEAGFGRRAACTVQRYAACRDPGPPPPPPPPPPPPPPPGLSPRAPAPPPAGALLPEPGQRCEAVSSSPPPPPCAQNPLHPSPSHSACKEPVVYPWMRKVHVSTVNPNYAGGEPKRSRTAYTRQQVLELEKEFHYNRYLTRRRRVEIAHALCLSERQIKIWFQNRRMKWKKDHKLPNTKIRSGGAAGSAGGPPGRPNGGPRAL

Tests used:
Test in all cases: log2 fold change, soluble protein after heating vs DMSO (PISA); higher = thermal stabilisation; K562 cells, 10 uM, 30 min; active = over 0.2 and 3.5 SD of the protein, either way, in both replicates (recomputed)
[1] = compound: NC(=O)Nc1cc(-c2cccc(F)c2)sc1C(=O)N[C@H]1CCCNC1
Outline: (§1)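 K562 cells at 2×10^6 cells/mL were treated with 10 μM compound for 30 min. Aliquots were heated for 3 min across 48°C-58°C, pooled, and extracted in PBS with 0.5% NP-40 at 4°C; soluble protein was the supernatant after 21,000xg for 90 min. Soluble protein was quantified by TMTpro 16plex LC-MS/MS with channel sums equalised, and reported as log2 fold change in thermal stability against DMSO controls, with values from duplicates.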

[2] = compound: NC(=O)c1cnc(N[C@@H]2CCCC[C@@H]2N)nc1Nc1cccc(-n2nccn2)c1
Outline: as §1

[3] = compound: NC1(c2ccc(-c3nc4ccn5c(=O)[nH]nc5c4cc3-c3ccccc3)cc2)CCC1
Outline: as §1

[4] = compound: NCC(=O)Nc1ccc(-n2nc(C(F)(F)F)cc2-c2ccc3c(ccc4ccccc43)c2)cc1
Outline: as §1

entinostat = compound: Nc1ccccc1NC(=O)c1ccc(CNC(=O)OCc2cccnc2)cc1 [entinostat]
Outline: as §1

vorinostat = compound: O=C(CCCCCCC(=O)Nc1ccccc1)NO [vorinostat]
Outline: as §1

citarinostat = compound: O=C(CCCCCCNC(=O)c1cnc(N(c2ccccc2)c2ccccc2Cl)nc1)NO [citarinostat]
Outline: as §1

silmitasertib = compound: O=C(O)c1ccc2c(c1)nc(Nc1cccc(Cl)c1)c1ccncc12 [silmitasertib]
Outline: as §1

[5] = compound: O=C1NC(=O)C(c2cnc3ccccn23)=C1c1cn2c3c(cc(F)cc13)CN(C(=O)N1CCCCC1)CC2
Outline: as §1

[6] = compound: c1cc(OCCN2CCCCC2)cc(-c2n[nH]c3ccc(-c4nnc[nH]4)cc23)c1
Outline: as §1

entospletinib = compound: c1cn2cc(-c3ccc4cn[nH]c4c3)nc(Nc3ccc(N4CCOCC4)cc3)c2n1 [entospletinib]
Outline: as §1

Measured: log2 fold change

HIST2H2BC (UniProt Q6DN03)
inactive: [1] 0.117 | [2] 0.297 | [3] 0.561 | [4] -0.01 | entinostat 0.056 | vorinostat 0.206 | citarinostat -0.035 | silmitasertib -0.068 | [5] 0.074 | [6] -0.244 | entospletinib 0.131

HPS1 (UniProt Q92902)
inactive: [1] 0.029 | [2] -0.089 | [3] -0.288 | [4] -0.174 | entinostat -0.069 | citarinostat 0.103 | silmitasertib 0.043 | [6] 0.122 | entospletinib -0.181

HSD17B10 (UniProt Q99714)
inactive: [1] 0.055 | [2] 0.032 | [3] -0.002 | [4] 0.013 | entinostat 0.03 | vorinostat 0.003 | citarinostat 0.156 | silmitasertib -0.07 | [5] 0.055 | [6] 0.032 | entospletinib -0.105

HNRNPL (UniProt P14866)
inactive: [1] -0.016 | [2] 0.092 | [3] 0.336 | entinostat 0.104 | vorinostat 0.007 | citarinostat -0.15 | silmitasertib 0.086 | [5] -0.022 | [6] -0.206 | entospletinib 0.183

HSPD1 (UniProt P10809)
inactive: [1] 0.012 | [2] -0.003 | [3] 0.018 | [4] 0.007 | entinostat -0.022 | vorinostat -0.023 | citarinostat -0.009 | silmitasertib -0.028 | [5] -0.038 | [6] 0.029 | entospletinib 0.003

HS1BP3 (UniProt Q53T59)
inactive: [1] -0.059 | [2] -0.075 | [4] 0.027 | entinostat -0.05 | citarinostat 0.115 | [5] -0.016 | [6] 0.108

HMGN5 (UniProt P82970)
inactive: [1] 0.037 | [2] 0.145 | [3] 0.039 | [4] -0.054 | entinostat -0.031 | vorinostat -0.019 | citarinostat 0.016 | silmitasertib -0.015 | [5] -0.022 | [6] 0.04 | entospletinib -0.015

HINT2 (UniProt Q9BX68)
inactive: [1] 0.096 | [2] 0.078 | [3] -0.084 | [4] 0.041 | entinostat -0.034 | vorinostat -0.053 | citarinostat -0.009 | silmitasertib -0.015 | [6] -0.055 | entospletinib 0.08

HSCB (UniProt Q8IWL3)
inactive: [1] 0 | [2] -0.012 | [3] -0.035 | [4] -0.138 | entinostat -0.094 | vorinostat 0.064 | silmitasertib 0.002 | [5] -0.037

HSF1 (UniProt Q00613)
inactive: [1] 0.031 | [2] -0.154 | [3] -0.169 | [4] -0.013 | entinostat 0.177 | vorinostat 0.332 | citarinostat 0.184 | silmitasertib 0.075 | [5] -0.173 | [6] -0.016 | entospletinib -0.027

ICMT (UniProt O60725)
inactive: [1] 0.031 | [2] -0.153 | [3] -0.233 | [4] -0.079 | entinostat 0.007 | citarinostat -0.034 | silmitasertib 0.022 | [5] -0.013 | [6] -0.016

HOMER2 (UniProt Q9NSB8)
inactive: [2] 0.475 | [3] -0.077 | [4] -0.089 | citarinostat -0.074 | silmitasertib 0.071 | [5] -0.419 | [6] -0.129 | entospletinib 0.012

HSPBAP1 (UniProt Q96EW2)
inactive: [2] -0.221 | [4] -0.332

ID1 (UniProt P41134)
inactive: [3] -0.135 | silmitasertib -0.031 | [5] -0.451

4 records drawn at random from those above:
ID1 (UniProt P41134)
inactive: [3] -0.135 | silmitasertib -0.031 | [5] -0.451

ICMT (UniProt O60725)
inactive: [1] 0.031 | [2] -0.153 | [3] -0.233 | [4] -0.079 | entinostat 0.007 | citarinostat -0.034 | silmitasertib 0.022 | [5] -0.013 | [6] -0.016

HSF1 (UniProt Q00613)
inactive: [1] 0.031 | [2] -0.154 | [3] -0.169 | [4] -0.013 | entinostat 0.177 | vorinostat 0.332 | citarinostat 0.184 | silmitasertib 0.075 | [5] -0.173 | [6] -0.016 | entospletinib -0.027

HOMER2 (UniProt Q9NSB8)
inactive: [2] 0.475 | [3] -0.077 | [4] -0.089 | citarinostat -0.074 | silmitasertib 0.071 | [5] -0.419 | [6] -0.129 | entospletinib 0.012

(listing goes on)

HNRNPUL1 (UniProt M0R247)
inactive: [1] -0.056 | [2] -0.629 | entinostat -0.352 | citarinostat -0.227 | [6] -0.014

ICE2 (UniProt Q659A1)
inactive: [2] 0.014 | [4] 0.214 | vorinostat 0.029 | [5] -0.014

HIF1AN (UniProt Q9NWT6)
inactive: [2] 0.024 | [3] 0.068 | [4] -0.088 | vorinostat 0.093 | citarinostat -0.035 | silmitasertib 0.005 | [5] -0.027 | [6] -0.19 | entospletinib 0.05

HNRNPR (UniProt O43390)
inactive: [1] -0.158 | [3] 0.283 | entinostat -0.088 | citarinostat 0.034 | silmitasertib 0.216 | [5] 0.091 | [6] -0.172 | entospletinib 0.106

HNRNPK isoform 3 (UniProt P61978)
inactive: [1] -0.06 | [3] 0.052 | [4] -0.182 | entinostat 0.023 | vorinostat 0.035 | citarinostat -0.009 | silmitasertib 0.028 | [5] 0.159 | [6] -0.102

HOMER3 (UniProt Q9NSC5)
inactive: [1] 0.063 | [3] 0.16 | entinostat 0.083 | silmitasertib -0.014

HMGXB4 (UniProt Q9UGU5)
inactive: citarinostat -0.021 | [5] 0.075 | [6] -0.04 | entospletinib -0.207

HTR1F (UniProt P30939)
inactive: [2] -0.119 | vorinostat 0.061

HMG20B (UniProt Q9P0W2)
inactive: vorinostat 0.129

HMBS (UniProt F5H0P4)
inactive: [3] -0.653 | silmitasertib -0.178

HMGCS2 (UniProt P54868)
inactive: [1] 0.199 | entinostat 0.017

HSBP1 (UniProt O75506)
inactive: citarinostat 0.123 | [6] 0.087 | entospletinib -0.029

HIGD2A (UniProt Q9BW72)
inactive: [5] -0.221

HPS4 isoform 4 (UniProt Q9NQG7)
inactive: vorinostat -0.361

ICA1 isoform 2 (UniProt Q05084)
inactive: [2] -0.001 | vorinostat 0.093 | [5] -0.095

HIST2H2AA3 (UniProt Q6FI13)
inactive: [2] 0.485 | [3] 0.524 | [4] 0.235 | vorinostat 0.28 | citarinostat 0.218 | silmitasertib 0.056 | [5] 0.131 | [6] 0.818 | entospletinib -0.024

HPF1 (UniProt Q9NWY4)
inactive: [5] 0.01

HIGD1A isoform 2 (UniProt Q9Y241)
inactive: [1] -0.174 | [3] 0.019 | entinostat -0.096 | silmitasertib -0.009

HUWE1, A0A087X1S3
inactive: [1] -0.074 | entinostat 0.041 | vorinostat -0.069 | citarinostat -0.046 | [5] -0.132 | [6] -0.151 | entospletinib 0.101

HOXB4 (UniProt P17483)
inactive: [5] -0.04

HOOK2 (UniProt Q96ED9)
inactive: citarinostat -0.012 | [5] 0.108 | [6] 0.031 | entospletinib -0.123

HOXD9 (UniProt P28356)
inactive: [2] -0.301 | [4] -0.101 | vorinostat 0.085 | citarinostat -0.059 | [6] -0.084 | entospletinib -0.189

HMBS (UniProt F5H226)
inactive: [1] -0.005 | [3] -0.02 | [4] -0.206 | entinostat 0.038 | vorinostat 0.051 | silmitasertib -0.065

ICOSLG isoform 2 (UniProt O75144)
inactive: [3] 0.241 | [4] 0.114 | silmitasertib 0.104

ICE1 (UniProt Q9Y2F5)
inactive: [1] -0.135 | [3] 0.031 | entinostat -0.074 | silmitasertib 0.019 | [5] -0.19

IBTK (UniProt Q9P2D0)
inactive: [1] -0.108 | [2] 0.075 | entinostat 0.01 | vorinostat 0.086 | citarinostat -0.129 | [5] 0.092 | [6] -0.228 | entospletinib 0.042

HSPBP1 (UniProt Q9NZL4)
inactive: [5] 0.28

HLA-E (UniProt P13747)
inactive: [1] 0.03 | [2] 0.087 | entinostat 0.06 | vorinostat 0.034 | [5] -0.078

HOOK1 (UniProt Q9UJC3)
inactive: [2] -0.246 | [4] -0.117 | citarinostat 0.006 | [5] -0.002 | [6] -0.026 | entospletinib 0.138

HP (UniProt P00738)
inactive: [1] 2.56 | entinostat 0.137
